Experimental data published in patent US20120220029A1.
Results are given in words; binding and its absence hold for the method and conditions named. Some entries that bind do so weakly or less than the wild type.

Sequences of proteins named here, by UniProt entry; tags and fusion partners are left off. A change or cut given only in a name is not applied to a line headed by its entry. Residues count along the entry.
UniProt P20263, residues 126-289: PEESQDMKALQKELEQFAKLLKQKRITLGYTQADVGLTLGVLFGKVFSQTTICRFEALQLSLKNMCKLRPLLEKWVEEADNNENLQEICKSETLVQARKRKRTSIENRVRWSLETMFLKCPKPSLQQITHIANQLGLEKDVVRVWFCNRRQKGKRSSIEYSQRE
UniProt Q61473: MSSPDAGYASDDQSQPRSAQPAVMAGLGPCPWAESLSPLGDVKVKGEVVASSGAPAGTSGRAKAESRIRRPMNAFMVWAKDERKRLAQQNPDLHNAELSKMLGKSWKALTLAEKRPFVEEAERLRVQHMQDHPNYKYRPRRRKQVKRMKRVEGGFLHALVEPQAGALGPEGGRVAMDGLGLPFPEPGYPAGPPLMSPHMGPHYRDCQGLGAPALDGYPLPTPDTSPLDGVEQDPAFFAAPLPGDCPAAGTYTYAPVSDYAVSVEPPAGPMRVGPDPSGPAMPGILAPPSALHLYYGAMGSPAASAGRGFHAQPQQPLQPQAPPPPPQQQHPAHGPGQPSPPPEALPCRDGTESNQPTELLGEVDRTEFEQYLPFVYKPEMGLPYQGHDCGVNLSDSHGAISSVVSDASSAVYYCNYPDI
UniProt P40646: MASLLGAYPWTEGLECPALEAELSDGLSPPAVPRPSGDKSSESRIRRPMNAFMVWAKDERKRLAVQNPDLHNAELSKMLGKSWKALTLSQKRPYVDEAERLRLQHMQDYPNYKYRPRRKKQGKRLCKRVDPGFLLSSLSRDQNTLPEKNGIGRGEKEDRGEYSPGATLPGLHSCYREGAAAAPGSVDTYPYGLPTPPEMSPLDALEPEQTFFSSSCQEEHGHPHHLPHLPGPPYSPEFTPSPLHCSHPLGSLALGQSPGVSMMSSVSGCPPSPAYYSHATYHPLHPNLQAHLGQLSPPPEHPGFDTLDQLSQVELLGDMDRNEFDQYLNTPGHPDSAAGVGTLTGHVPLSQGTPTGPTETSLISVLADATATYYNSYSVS

Experiments:
[1] = biological target: Oct4POU (POU domain of mouse Oct4, residues 126-289 of the full length protein) (mouse) (UniProt P20263); test: in vitro heterodimerization assay (EMSA), compressed sox/oct DNA element
[2] = biological target: Oct4POU (POU domain of mouse Oct4, residues 126-289 of the full length protein) (mouse) (UniProt P20263); test: EMSA, compressed sox/oct element (FIG. 1)
[3] = biological target: Oct4POU (POU domain of mouse Oct4, residues 126-289 of the full length protein) (mouse) (UniProt P20263); test: EMSA, canonical sox/oct element; 50 nM Sox17, 250 nM Oct4POU, 250 nM DNA
[4] = biological target: Oct4POU (POU domain of mouse Oct4, residues 126-289 of the full length protein) (mouse) (UniProt P20263); test: EMSA with ordered addition of proteins, compressed element; 50 nM Sox17, 250 nM Oct4POU, 250 nM DNA
[5] = biological target: Oct4POU (POU domain of mouse Oct4, residues 126-289 of the full length protein) (mouse) (UniProt P20263); test: EMSA, ternary complex, panel of sox/oct motif configurations; 50 nM Sox17HMG, 250 nM Oct4POU, 250 nM DNA
[6] = biological target: Oct4POU (POU domain of mouse Oct4, residues 126-289 of the full length protein) (mouse) (UniProt P20263); test: EMSA alone and with Oct4, canonical and compressed Nanog-derived elements (FIG. 10C)
[7] = biological target: Oct4POU (POU domain of mouse Oct4, residues 126-289 of the full length protein) (mouse) (UniProt P20263); test: EMSA competition, compressed element, Sox2HMG1 as competitor
[8] = biological target: Oct4POU (POU domain of mouse Oct4, residues 126-289 of the full length protein) (mouse) (UniProt P20263); test: EMSA, ternary complex, compressed sox/oct element (-1 bp)
[9] = biological target: Oct4POU (POU domain of mouse Oct4, residues 126-289 of the full length protein) (mouse) (UniProt P20263); test: EMSA, canonical elements (four spacer nucleotides) and compressed element; 50 nM Sox17HMG, 250 nM Oct4POU
[10] = biological target: Oct4POU (POU domain of mouse Oct4, residues 126-289 of the full length protein) (mouse) (UniProt P20263); test: EMSA, canonical elements (four spacer nucleotides) and compressed element; 50 nM Sox7HMG, 250 nM Oct4POU

Measured: binding

Sox17HMG (HMG domain of mouse Sox17) (from UniProt Q61473 66-144)
not listed: [10]
binds: all other assays above

Sox7HMG (HMG domain of mouse Sox7) (from UniProt P40646 43-121)
binds: [2] | [10]
